Laboratory results published in publication PMC4367295.
The exact form of at least one protein or probe is not confirmed. At least one verdict rests on a figure or table, not on a statement of the authors.

Tested on: hMCM2-7 complex (MCM2, MCM3, MCM4, MCM5, MCM6, MCM7) (Homo sapiens)
Assay: negative-stain single-particle EM (23 A), conformational change on DNA binding
Conditions: 4 mM ATP, 10 mM Mg acetate, 60 nM DNA, EM binding: 50 mM HEPES pH 7.5, 2 mM DTT, 50 ug/ml BSA, 10 mM magnesium acetate, 60 min at 37 C, hMCM 8 ug, recombinant protein

CCTGGCGTTACCCAACTTAATCGCCTTGCAGCACATCCCCCTTTCTTTTTTTTTTTTTTTTTTTTTTTTTTTTTTTTTTTTTTTTTTTTTTTTTTTTTTTTTTTT / TTTTTTTTTTTTTTTTTTTTTTTTTTTTTTTTTTTGAAAGGGGGATGTGCTGCAAGGCGATTAAGTTGGGTAACGCCAGG [HF150/HR80 forked DNA]
binding result: binds
